{"source": "patent US10801054B2", "about": "(priority 2013, dated 2020)", "tested_on": "Phage litmus", "note": "Values joined by “and” are separate entries in the source; they are usually repeats but may differ in a detail not shown here. Equal entries are not always repeated.", "data": [{"smiles": "CO", "note": "[MeOH, methanol]", "values": [{"measurement": "Color change of Phage litmus bands upon exposure", "result": "immediately changed color"}, {"measurement": "Red-green-blue (RGB) color differences G3", "result": "3.55 and 4.45 and 4.18"}, {"measurement": "Red-green-blue (RGB) color differences G4", "result": "2.49 and 3.38 and 3.00"}, {"measurement": "Red-green-blue (RGB) color differences R1", "result": "1.58 and 2.13 and 1.88"}, {"measurement": "Red-green-blue (RGB) color differences R3", "result": "2.90 and 3.74 and 3.27"}, {"measurement": "Red-green-blue (RGB) color differences R4", "result": "1.42 and 1.65 and 1.73"}, {"measurement": "Time in which all color matrices of the Phage litmus responded", "result": 30, "unit": "s"}]}]}
